Among all 52,000 sequences or so, about 210 (0.4%) were called active.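 Rule for the calls: active = gene whose silencing raises cell survival under the drug, median off-target-corrected z-score across its silencing RNAs 2 or more; inactive = the rest.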 The list shows a part of the results.

The nature of this assay: Resistance to Poly (ADP-Ribose) Polymerase inhibitor: Gene Identification via Genome-wide siRNA Screen. The conditions noted are these: mouse BRCA2 R2336H ES cells, olaparib, CellTiter-Glo viability; stronger effect = higher value. In outline:
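Mouse BRCA2 R2336H ES cells were reverse-transfected with siRNA (20 nM final), treated at 48 h with 500 nM olaparib, and read by CellTiter-Glo after 72 h. Scores: MAD-based z per siRNA, median per gene, seed off-target correction.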
Take GCCUACUUCUGUUAAUUCUTT against D10Ucla2: the z-score was inactive: 0.324. As to “GGAGAGAGAUGCCCAAAUCTT against A230056M16”, the z-score was inactive: -0.672. The result for “GCUUGAAUAUGAGAACGAATT against 4933401K09Rik” reads inactive: -1.11; that for CCAUCCGCCUGUUAGAAAGTT against BC062185, inactive: -2.34; that for GCAUUGUUUUUCUAUUCAGTT against Cfhl1, inactive: 0.0601. The result for “CCGAAGUUAAGACAAAGAATT against 1700012M14Rik” reads inactive: -0.11; that for CGUGGACAUCGAUAUCACCTT against Slc26a8, inactive: 1.92.

GGCCAAUGCCUACAAGUAGTT against AW557805: the z-score is inactive: -0.164. With CCCUUGCUACAAUGAUGCCTT against Mfge8, the z-score was inactive: -0.195. For the sequence GGUGCUGAUGAAGUUCAUGTT against Ap1b1, the z-score is inactive: 0.163. Take GCGAUGAUGAAAGCUCAGUTT against Atad1: the z-score was inactive: -1.87. The result for “GGGUAUAGAGUCAAUCUGATT against A930009M04Rik” reads inactive: 0.252; that for “GGAACAUCAUUACAGCCAATT against C030018G13Rik”, inactive: 0.426; that for GGAUGAUUGUGUUUCGACUTT against Stoml1, inactive: 0.00388. Then GGAUGAAGAGACUAAAAAUTT against Il23a, with inactive: 1.08. Then “CGAGAAAUCCUGUAAACGUTT against A130081B01”, with inactive: 0.296. Consider GGAAAAACAGUUCUUGGAGTT against Apeh, for which the z-score was inactive: 0.294. Then GCUAUCAAGGGCAUGAUCCTT against Gabra3, with inactive: -0.915; and “CUCCACUCCUUUGGAACUUTT against 4930481M05”, with inactive: 0.412; and GCGGCAAGUAUUAUUAUCATT against Cbx4, with inactive: 1.01.

As for “GGUUUGCUUUUAUGAGAGUTT against 2610044O15Rik”, the z-score was inactive: 1.08. The result for GGUUACCAAAAAAAGAGUUTT against Xrn1 reads inactive: -1.86; that for GCUACAGCUAUAUCGCUAUTT against Cnot8, inactive: -0.355; that for GGACCUCAUCAAGCUAUGUTT against Rbms3, inactive: -2.98. For the sequence GGAGUUUCAACUCUUCUUCTT against Efcbp2, the z-score was inactive: 0.0947. Then GGUUAAAAGACUGAAUGAATT against Rabep2, with inactive: -0.173. The result for GCUACUCUUACAAGCAAUATT against Rnf111 reads inactive: -0.985; that for CCGUUUCCCUCUAAAGAAATT against Mphosph6, inactive: -0.855. Consider GGUUGAAGGAGACAACAUUTT against Fzd6, for which the z-score was inactive: -0.0162. For GGAUAUAAACGGGUUAACATT against Ltbp1, the z-score was inactive: -0.255. Then GGAGUUAAAUACUGAGUUUTT against Csnk1g3, with inactive: 0.574; and GGCAGUUUCAAUGAAAGAATT against Cnn2, with inactive: 0.129; and CGAAUUUGUAACACAUGGUTT against Tmeff1, with inactive: -0.802. As for GGUUAAGCAGGAAAACAAGTT against Pygb, the z-score was inactive: 0.945.

For GGUUGAUUACAGCAUCGGGTT against Cops7a, the z-score is inactive: -0.565.

Turning to GGAGAAAGAAGGGAUUCUCTT against Ensa, the z-score was inactive: 0.191. Consider CGGCUUCUUAGGAAACUCUTT against Olfr358, for which the z-score was inactive: -1.24. Turning to “GCGCAAAGGUGAAACGUAGTT against E030011O05Rik”, the z-score was inactive: -0.0435. Then GCCUUUAAGAAGUUGAUGCTT against Olfr1015, with inactive: 0.805.

With “GGUCUGAAGUAUAGCAAUGTT against 6720463E02Rik”, the z-score was inactive: 0.0806.

As to GGUCCUAGGCCGAUUCGAUTT against Gpsm1, the z-score is inactive: -0.387. As to “CCUGCAUUUGCCGAACUUATT against 2610018G03Rik”, the z-score was inactive: -0.494.

Take CCUUUUCCCUAAUACGUAUTT against Pcyt1a: the z-score was inactive: -0.233. The result for “GGUGUAUUCCAGUUACAAATT against 2610002M06Rik” reads inactive: 0.2. Then GCGGCUUUACAAGGAUGACTT against Tceb2, with inactive: -1.49; and GGAAAACUCAUCAUACCAGTT against AI746432, with inactive: 0.55. Take CUGUGGUGCCAUUCUUACUTT against Olfr386: the z-score is inactive: 0.0804. Consider “CGAGACAAAGAAAGCAAGUTT against 5033403J15Rik”, for which the z-score was inactive: -1.65. Then GGACUGGAUGCCACUGGUATT against Tyki, with inactive: 3.98.

GCAGAACCAUACUAUUUGCTT against Apg5l: the z-score is inactive: -0.0879.

Take GGAAACUUUUACUUCACAGTT against Lepre1: the z-score was inactive: 1.19. For CGGGAAUCCUCUGAAUUAATT against Pycr2, the z-score is inactive: 0.439. On to GGCUGAAAGGGAAGACAAATT against B3galt3, for which the z-score is inactive: -2.67. The result for CCUGAUUAUUCUGAGAAAUTT against Adsl reads inactive: -0.437; that for GGCAUUUUUACAGACCAGCTT against Apoc2, inactive: 1.53. In the case of GGCAACCCUGAAGACAGCUTT against Cys1, the z-score was inactive: 1.05. The result for “GGCUGUGAUUGGCAAUCUATT against 6430548M08Rik” reads inactive: 1.17; that for GGACCCAUUCUGUGGGUAATT against Zfpn1a2, inactive: 0.987; that for GGUCUGAGCUCUCAAAAUGTT against Neurod4, inactive: 0.679. Then GGAUUCUAGGAGAGAAUCATT against Lman1l, with inactive: -0.346; and GCAAACCACUUACACUAAUTT against Spry4, with inactive: 3.14; and “GGACAUGACAUUCCUAUCCTT against C920008G01Rik”, with inactive: -0.21. Then GGAAACAGAUUUAAAGUGATT against AB041550, with inactive: 1.49; and GGGAUCGAAUGGUUCAGGUTT against Osbpl9, with inactive: -1.76; and “GGAAAAUUCAGUUUAAUCCTT against 2410004H05Rik”, with inactive: 0.66. Turning to CCAGUCGACUACUAUGCCATT against Sstr1, the z-score was inactive: 0.153. For the sequence GGAACUUUUGGCCAGCAAGTT against Opa1, the z-score was inactive: 0.518. On to GCUUCAAACCUAAUACAUCTT against Mc3r, for which the z-score was inactive: 0.793. Then “CCAAACAAUGUUGUUUAGGTT against 2900002H16Rik”, with inactive: 1.29; and CCAAAGGCCAAAUAACAGUTT against Timm17a, with inactive: -1.13. Regarding GGAGUUUAGAAGGGAGGAATT against Btbd12, the z-score is inactive: -2.29. The result for “CCUUCCGUUUAGUUUUAUGTT against A230083H22Rik” reads inactive: 0.638.

As for GGUCUCUUCAUGAUGGAUGTT against Akt1s1, the z-score is inactive: 1.93. On to GGAUGCUAAUUCAAGUCUUTT against Slc1a7, for which the z-score was inactive: -0.42. Then CCUUCUCUAUGAUCAGGCUTT against Doc2a, with inactive: 0.38; and GGUAGACAACAGGUUGUUGTT against Crhbp, with inactive: 0.567; and GCUUUUUGGAGGAAUUCACTT against LOC547347, with inactive: 2.97. Regarding GGAGGUGACCUGUAAUCCCTT against Msmb, the z-score was inactive: 0.268. Then “GGUCUGUGAAAUGAAAAAUTT against 1110064N10Rik”, with inactive: -1.58; and GGAUUUCAUUCCAAACAUGTT against Hbs1l, with inactive: 1.14. The result for “GGUCACGGAACAAAAAACCTT against D230019K20Rik” reads inactive: -0.254; that for “AACUAUACGUCCGCUCACUTT against 1700013L23Rik”, inactive: -0.325. Turning to GGACGAGGUCCUGUCCUUUTT against Ccbp2, the z-score was inactive: 0.571. As to GCUUGGUAAAAUGAAAGUCTT against Klhl12, the z-score is inactive: 0.771. Consider GCCAAAGUGUGUGUUGAAGTT against Gng11, for which the z-score was inactive: 0.934. The result for “CCCUCUCUACGAUGACUCUTT against 9130213B05Rik” reads inactive: 0.232; that for GGAAGAACCACCUUCAUGCTT against Btn2, inactive: -2.22. Then GGCAUUGCUGACUACAAACTT against Tcn2, with inactive: -0.219; and GGCCUUGAUGGUACCAUGUTT against Uqcr, with inactive: -2.11. Consider GGAGCCAAGUGUGAUUACATT against Pias3, for which the z-score is active: -1.38. Take CCGUCAACUUCUAGAUGGUTT against Trpm5: the z-score was inactive: -0.761. For the sequence GGGAUUGAGUUUGUCCUAUTT against Olfr453, the z-score was inactive: 0.525. With “GGGAAGGCAAUUUAAAAAATT against 4931428D14Rik”, the z-score was inactive: -0.902.

As to GCGUAGGUCAUCCUUGUAATT against Samd4, the z-score was inactive: 0.525. The result for GCCAACAGAAAUAAGCCUUTT against Sorcs1 reads inactive: -0.456; that for GCGAAAUGCACCAGAUCAGTT against Gm295, inactive: 0.111; that for “GAGAACCAGGCUAUGUCUGTT against Defcr-rs10”, inactive: -0.0777. For the sequence “GGAGAGACCAGAAUGGUAUTT against E330009P21Rik”, the z-score is inactive: -0.543. In the case of GGAGACGAUGGAAUAUUUGTT against Snx3, the z-score is inactive: 1.14. In the case of GGUUCCUGUAUCACAUGCGTT against BC016235, the z-score was inactive: 0.394.

With GGUCGUAAGUUUCAUAAUUTT against Aqp3, the z-score is inactive: -0.37. With GGACAAGGGCACAUCCAGUTT against Gtf2h4, the z-score was inactive: -3.19. On to GGACGAAAAGGAAUAUAUGTT against Cul1, for which the z-score is inactive: -0.573.

(Values after PubChem BioAssay AID1347423 (Functional Genomics Laboratory (NCATS/FGL), 2020).)
